# Experimental data: PubChem BioAssay AID2685 (National Center for Advancing Translational Sciences (NCATS), 2010)
# Some of the results follow. Shown are side measurements of this screen, not its main read-out; they come without a call. Compounds called inactive in the main read-out are mostly missing here. Potencies come from curve fits of mixed quality, noted in brackets.
# Experiment: qHTS Assay for Lipid Storage Modulators in Drosophila S3 Cells;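 on cell number change: cells counted by Cell Tracker Red CMTPX staining in the red channel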
# Conditions: BODIPY lipid droplet fluorescence, 18-24 h; for cell number change: measured here: cell count max response, cells fed with added oleic acid
# In short: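 Drosophila S3 cells got compounds at several concentrations plus oleic acid (400 uM solution). Laser-scanning cytometry with 488 nm excitation read lipid droplets at 500-530 nm and cells at 575-640 nm. Percent activity was relative to 20 uM Triacsin C.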
# [1] = measured here: lipid fluorescence (Fed channel) AC50, cells fed with added oleic acid
# [2] = measured here: cell number channel AC50, cells fed with added oleic acid
SMILES,cell number change,AC50 [1],AC50 [2]
CNC(=S)N/N=C/c1c2ccccc2c(Cl)c2ccccc12,-2.1%,"0.00461 µM [rising, full curve, poor fit]",
CCOc1ccc(S(=O)(=O)NCCCn2ccnc2)cc1,-17.4%,"6.51 µM [rising, single point]",
Cc1ccc(CN(C)C(=O)C2CCN(C(=O)Nc3ccccc3)CC2)o1,28.5%,,
Cc1cc(F)ccc1NC(=O)c1cc(S(=O)(=O)N2CCOCC2)cn1C,8.36%,"18.4 µM [rising, single point]",
CCOc1ccccc1C1NC(=O)NC(C)=C1C(=O)OCc1ccccc1 (stereo not given),-4.73%,"0.259 µM [falling, single point]",
Cc1c(C)n(CCCN(C)C)c2ncnc(Nc3ccccc3)c12,,,"6.51 µM [rising, single point]"
Cc1cccc(CN2CCC(CNC(=O)CCNC(=O)Cn3ccc4ccccc4c3=O)CC2)c1,-120%,"20.6 µM [falling, partial curve]","20.6 µM [falling, partial curve]"
COc1ccc(CN(C)C(=O)CCN2C(=O)c3ccccc3C2=O)c(OC)c1OC,-8.97%,,
CCN1CCN(c2nc(Nc3cccc(OC)c3)nc(N)c2[N+](=O)[O-])CC1,22.8%,"5.8 µM [rising, partial curve]",
COc1ccccc1CCn1cnc2c3cc(C)ccc3n(C)c2c1=O,10%,"2.91 µM [rising, partial curve]","4.11 µM [rising, single point]"
COC(=O)c1cn(NC(=O)COc2ccc(Cl)cc2)c(=O)c2ccccc12,-36.4%,,
COc1ccc(-c2nc(-c3cccnc3)no2)cc1,-0.483%,,
O=C(COc1ccc(Cl)cc1Cl)Nc1ccc(C(=O)Nc2ccccc2C(=O)O)cc1,50.2%,,"25.9 µM [rising, single point]"
Cc1cc(C)c(C(=O)CSc2n[nH]c(-c3ccncc3)n2)c(C)c1,-3.9%,"0.00461 µM [falling, full curve, poor fit]","0.00517 µM [falling, full curve, poor fit]"
CCCOc1ccc(Cc2nn[nH]n2)cc1,-11.2%,"0.231 µM [falling, full curve]",
Cc1ccc(S(=O)(=O)Nc2cc3c4c(c2)CC(=O)N4CCC3)cc1,,,"1.46 µM [rising, partial curve]"
Cc1cc(NC(=NC2CC2)c2ccccc2)n(-c2ccccc2)n1,40.8%,"29.1 µM [rising, single point]","20.6 µM [rising, single point]"
Cc1cc(C)c2c(c1)/C(=N/NC(=S)Nc1ccc(F)cc1)CCC2,-36.8%,"0.326 µM [rising, full curve]","14.6 µM [falling, single point]"
Cc1cc(Br)ccc1NC(=O)c1sc2ncnc(N3CCN(c4ccccn4)CC3)c2c1C,33.1%,"29.1 µM [falling, single point]","14.6 µM [rising, single point]"
CCCN(CCO)Cc1cccc(Oc2ccccc2)c1,-9.72%,"3.26 µM [falling, full curve]",

SMILES,cell number change,AC50 [1],AC50 [2]
CCOC(=O)n1c(=O)n(Cc2cccc(F)c2)c2ccccc21,46.3%,"29.1 µM [rising, single point]","29.1 µM [rising, single point]"
COc1ccccc1CCNC(=O)Cn1ccc2cc(S(=O)(=O)N3CCC(C)CC3)ccc21,11.6%,,
COc1ccc(-c2noc(CCC(=O)Nc3ccc(C)c(C)c3)n2)cc1,-27.1%,"1.3 µM [falling, full curve, poor fit]",
COC(=O)c1sc(NC(=S)NC(=O)c2ccccc2Cl)nc1C,1.41%,"0.184 µM [rising, full curve]",
O=[N+]([O-])c1ccccc1SN(Cc1ccccc1)c1ccccn1,8.01%,"29.1 µM [rising, single point]",
Cc1cccc(CNC(=O)C2CCC(=O)N(C3CCCC3)C2)c1 (stereo not given),15.2%,,
CC(=O)c1cccc(NC(=O)c2cccc(NC(=O)c3ccco3)c2)c1,38.1%,,"0.00651 µM [rising, full curve, poor fit]"
CC(C(=O)NCCCN1CCOCC1)n1cccc1C(=O)c1ccccc1 (stereo not given),22.4%,"14.6 µM [rising, partial curve, poor fit]",
CCOC(=O)c1nc[nH]c1C,-0.773%,,
O=C(Nc1cc(S(=O)(=O)Nc2ccccc2Cl)ccc1O)c1sc2cc(Cl)ccc2c1Cl,-19.7%,"4.11 µM [falling, single point]",
CCCCc1cc(=O)oc2c(C)c(OCC(=O)N3CCC(C(=O)O)(c4ccccc4)CC3)ccc12,-7.12%,"20.6 µM [rising, single point]",
CC(=O)Nc1ccc(NS(=O)(=O)c2ccc(CN3C(=O)c4cccnc4C3=O)cc2)cc1,-58%,,"29.1 µM [falling, single point]"
COc1ccc(N2CCN(C(=O)CN(CCc3ccccc3)S(C)(=O)=O)CC2)cc1,3.04%,"11.6 µM [falling, partial curve]","6.51 µM [falling, single point]"
Oc1ccccc1N1CCN(CC(O)COC2CCCc3ccccc32)CC1 (stereo not given),15.6%,"9.2 µM [falling, partial curve]",
Cc1ccc2c(c1)N(CC(=O)N1CCCCC1)C(=O)C(C)O2 (stereo not given),10.8%,,
CCOC(=O)c1c(-c2ccccc2)csc1N1C(=O)Nc2ccccc2N1O,2.48%,"0.326 µM [falling, partial curve, poor fit]","0.58 µM [falling, single point]"
CC1CCN(C(=S)Nc2ccc(F)cc2)CC1,,"13 µM [rising, single point]",
CCOc1ccccc1-n1nnnc1SCC(=O)OC,-24.2%,"29.1 µM [falling, single point]",
CCN1CCN(C(=O)c2ccc3c(=O)n(C4CCCC4)c(=S)[nH]c3c2)CC1,,"2.91 µM [rising, single point]",

# Structural class, those above with two or more sulfur atoms
SMILES,cell number change,AC50 [1],AC50 [2]
COC(=O)c1sc(NC(=S)NC(=O)c2ccccc2Cl)nc1C,1.41%,"0.184 µM [rising, full curve]",
O=C(Nc1cc(S(=O)(=O)Nc2ccccc2Cl)ccc1O)c1sc2cc(Cl)ccc2c1Cl,-19.7%,"4.11 µM [falling, single point]",
